In article PMC5747488 one finds binding data, which are given here for two substances.

In assay [1] the target is T1, TNF receptor associated factor 2 (TRAF2), endogenous in ovine OFTu cells (ovine (endogenous in OFTu)).
T1 sequence: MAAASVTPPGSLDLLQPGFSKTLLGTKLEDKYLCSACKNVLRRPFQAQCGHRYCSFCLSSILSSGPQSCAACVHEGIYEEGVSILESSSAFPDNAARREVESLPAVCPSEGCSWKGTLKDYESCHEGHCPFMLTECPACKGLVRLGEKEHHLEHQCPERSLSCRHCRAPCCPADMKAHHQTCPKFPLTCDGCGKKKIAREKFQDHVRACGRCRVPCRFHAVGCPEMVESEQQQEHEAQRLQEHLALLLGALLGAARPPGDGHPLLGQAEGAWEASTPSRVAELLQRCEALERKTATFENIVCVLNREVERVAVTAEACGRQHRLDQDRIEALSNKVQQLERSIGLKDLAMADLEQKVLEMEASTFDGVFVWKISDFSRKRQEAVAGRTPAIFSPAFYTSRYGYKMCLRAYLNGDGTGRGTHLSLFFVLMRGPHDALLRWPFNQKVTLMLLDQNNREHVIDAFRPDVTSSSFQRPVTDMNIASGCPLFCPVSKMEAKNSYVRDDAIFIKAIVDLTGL
Nature of the assay: co-IP; OFTu cells infected with Flag-tagged recombinant ORFV (MOI 10), harvested 12 h p.i.; reciprocal IP of total protein extracts (anti-Flag or antibody against the cellular protein), high stringency buffer with 300 mM NaCl, overnight at 4°C, protein G agarose; Western blot. A general note: In western blotting, separated proteins are transferred to a membrane and probed.

Assay [2] has as its target T2, TNF receptor associated factor 2 (TRAF2), endogenous in human cells (human (endogenous in HEK 293T, Saos-2)) (UniProt Q12933).
T2 sequence: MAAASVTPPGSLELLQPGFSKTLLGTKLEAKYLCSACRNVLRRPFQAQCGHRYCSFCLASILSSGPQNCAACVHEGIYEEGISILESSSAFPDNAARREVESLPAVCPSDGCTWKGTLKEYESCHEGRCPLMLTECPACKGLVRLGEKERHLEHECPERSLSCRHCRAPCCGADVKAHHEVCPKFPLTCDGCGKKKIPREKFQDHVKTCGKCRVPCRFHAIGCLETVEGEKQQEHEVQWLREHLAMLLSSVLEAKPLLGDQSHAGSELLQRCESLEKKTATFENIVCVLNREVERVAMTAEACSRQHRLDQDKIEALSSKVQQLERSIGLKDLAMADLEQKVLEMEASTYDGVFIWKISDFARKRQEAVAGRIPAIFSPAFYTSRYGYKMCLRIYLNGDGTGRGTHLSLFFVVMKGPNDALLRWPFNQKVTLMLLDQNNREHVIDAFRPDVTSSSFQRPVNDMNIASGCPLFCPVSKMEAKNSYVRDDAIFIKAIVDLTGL
Description: co-IP; HEK 293T cells transfected with pORFV119^Flag, pORFV119^LxGxE-Flag or pORFV113^Flag, harvested 12 h post transfection; reciprocal IP of total protein extracts (anti-Flag, anti-pRb or anti-TRAF2), high stringency buffer with 300 mM NaCl, overnight at 4°C, protein G agarose; Western blot.

Results are given in words; binding and its absence hold for the method and conditions named. In cells and extracts the contact can be indirect.

With “ORFV113^Flag expressed by virus OV-IA82-RV113^Flag”, the binding result in assay [1] was “no binding”. Regarding “ORFV113^Flag expressed from plasmid pORFV113^Flag”, in assay [2], the binding entry is “no binding”.
